Experimental data as given in patent US6036941A, “Fluorogenic substrates for diagnosis and photodynamic treatment of tumors” (Consiglio Nazionale Delle Ricerche, priority 1995, dated 2000).

System: rat glioma (C6) cells
Assay: Intracellular accumulation and hydrolysis kinetics in C6 cell cultures
Assay type: cell-based
Conditions: fluorescence pictures after treatment
Protocol: Evaluations of the kinetics of intracellular accumulation of Rose Bengal acetate were performed on cultures of an established cell line of rat glioma (C6) which grows as a monolayer. This cell line is widely used for pharmaco-kinetic studies of fluorescent substances with photosensitisation activity by virtue of its rapid proliferation activity and the possibility of modifying the physiological activities of the cells.
It is particularly important that, principally in short-term treatments, a continuous increase of intracellular Rose Bengal is recorded in the cells treated with the acetylated species, even when the cells are transferred into a medium devoid of this substance. This can easily be interpreted in terms of the balance between the processes of incorporation and hydrolysis. Since the process of incorporation is rapider than that of hydrolysis, inside the cells an accumulation is created of hydrolysable substance on which the enzyme can continue to effect its action through time.
Further, it is interesting to note that the kinetics of hydrolysis of Rose Bengal acetate is accelerated by the cellular environment: the Km passes from about 10^-3 M in conditions of hydrolysis in solution to about 10^-6 M in the cells.

Structure (SMILES) | localisation of fluorescence in the cells
CC(=O)Oc1c(I)cc2c(-c3c(Cl)c(Cl)c(Cl)c(Cl)c3C(=O)O)c3cc(I)c(=O)c(I)c-3oc2c1I [Rose Bengal acetate] | all the cellular compartments except the nucleus
O=C(O)c1c(Cl)c(Cl)c(Cl)c(Cl)c1-c1c2cc(I)c(=O)c(I)c-2oc2c(I)c(O)c(I)cc12 [Rose Bengal, reference compound] | limited to the cellular membrane
